Results are given in words; binding and its absence hold for the method and conditions named. Some entries that bind do so weakly or less than the wild type. One block for each binder: values may come before it.
Key:
[1] = target: recombinant human Siglec-15-his protein (Bonopusbio) (human) (UniProt Q6ZMC9); assay: ELISA on coated recombinant human Siglec-15-his (FIG. 15A)
[2] = target: recombinant human Siglec-15-his protein (Bonopusbio) (human) (UniProt Q6ZMC9); assay: ELISA, plate coated with 2 µg/ml human Siglec-15-his, antibody 3-fold dilutions from 198 nM, HRP goat anti-human IgG Fc, OD450
[3] = target: truncated human Siglec-15 comprising only domain 2 (D2), expressed on HEK293T cells (human) (UniProt Q6ZMC9); assay: flow cytometry (gMFI) on HEK 293T cells expressing only D2
[4] = target: recombinant human Siglec-15-his protein (Bonopusbio) (human) (UniProt Q6ZMC9); assay: ELISA, plate coated with 100 ng per well recombinant human Siglec-15 (supplier not named in Example 3), HRP anti-mouse IgG, OD450
[5] = target: truncated human Siglec-15 comprising only domain 2 (D2), expressed on HEK293T cells (human) (UniProt Q6ZMC9); assay: flow cytometry, HEK 293T cells expressing only domain 2 of Siglec-15 (S15 D2) beside CTRL cells; 2ry = secondary antibody alone
[6] = target: truncated human Siglec-15 comprising only domain 2 (D2), expressed on HEK293T cells (human) (UniProt Q6ZMC9); assay: flow cytometry on HEK 293T cells expressing only D2
[7] = target: truncated human Siglec-15 comprising only domain 2 (D2), expressed on HEK293T cells (human) (UniProt Q6ZMC9); assay: flow cytometry, HEK 293T cells expressing only domain 2 of Siglec-15, fold change of ab+ cells relative to 2ry control
[8] = target: recombinant human Siglec-15-his protein (Bonopusbio) (human) (UniProt Q6ZMC9); assay: ELISA, plate coated with recombinant human Siglec-15-his, antibody titrated up to about 200 nM, OD 450 nm
[9] = target: recombinant human Siglec-15-his protein (Bonopusbio) (human) (UniProt Q6ZMC9); assay: ELISA, plate coated with 2 µg/ml human Siglec-15-his, antibody 3-fold dilutions from 198 nM, HRP goat anti-human IgG Fc, OD 450 nm
[10] = target: recombinant human Siglec-15-his protein (Bonopusbio) (human) (UniProt Q6ZMC9); assay: ELISA on coated recombinant human Siglec-15-his
[11] = target: T1, recombinant Siglec-15 (bispecific antibody affinity assay) (Homo sapiens (Human)) (UniProt Q6ZMC9); assay: BLI on recombinant Siglec-15
T1 sequence: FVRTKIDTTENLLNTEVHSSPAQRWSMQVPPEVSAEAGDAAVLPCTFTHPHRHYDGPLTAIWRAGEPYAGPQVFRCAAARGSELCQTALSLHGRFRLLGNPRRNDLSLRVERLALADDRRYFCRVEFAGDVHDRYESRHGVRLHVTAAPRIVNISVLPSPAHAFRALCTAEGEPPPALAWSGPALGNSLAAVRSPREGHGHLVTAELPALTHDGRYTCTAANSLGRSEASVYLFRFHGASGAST

[12] = target: truncated human Siglec-15 comprising only domain 2 (D2), expressed on HEK293T cells (human) (UniProt Q6ZMC9); assay: flow cytometry (fold change of mAb positive cells) on HEK 293T cells expressing only D2
[13] = target: human Siglec-15, full length, expressed on cells (human) (UniProt Q6ZMC9); assay: flow cytometry, HEK293T cells expressing human Siglec-15, anti-human IgG-PE, MFI

B2: S15B1 (antibody, V domains shown)
VH: QVQLQQSGPELVKPGASVKISCKASGYAFSSSWMNWVKQRPGKGLEWIGRIYPGHGETNYNGKFKDKATVTADKSSSTTYMQLSSLTSEDSAVYFCARVDNSDPYYFDYWGQGTTLTVSS
VL: DIVLTQSPASLAVSLGQRATISCRASKSVSTSGYSYMHWYQQKPGQPPKLLIYLASNLESGVPARFSGSGSGTDFTLNIHPVEEEDAATYYCQHGRELPFTFGSGTKLEIK
binding [3]: binds | binding [4]: binds | binding [5]: binds | binding [6]: binds | binding [7]: binds | binding [8]: binds | binding [9]: binds | binding [10]: binds | binding [11]: binds | binding [12]: binds

B3: S15B1-VH2 + VL2 (antibody, V domains shown)
VH: QVQLVQSGAEVKKPGASVKVSCKASGYAFSSSWMNWVRQAPGQGLEWIGRIYPGHGETNYNGKFKDRVTMTADTSTSTVYMELSSLRSEDTAVYFCARVDNSDPYYFDYWGQGTTVTVSS
VL: DIVLTQSPASLAVSPGQRATITCRASKSVSTSGYSYMHWYQQKPGQPPKLLIYLASNLESGVPARFSGSGSGTDFTLTINPVEAEDTATYYCQHGRELPFTFGGGTKLEIK
binding [8]: binds | binding [10]: binds | binding [13]: binds

B5: S15B1-VH3 + VL2 (antibody, V domains shown)
VH: QVQLVQSGAEVKKPGASVKVSCKASGYAFSSSWMNWVKQAPGQGLEWIGRIYPGHGETNYNGKFKDRATMTADTSTSTVYMELSSLRSEDTAVYFCARVDNSDPYYFDYWGQGTTVTVSS
VL: DIVLTQSPASLAVSPGQRATITCRASKSVSTSGYSYMHWYQQKPGQPPKLLIYLASNLESGVPARFSGSGSGTDFTLTINPVEAEDTATYYCQHGRELPFTFGGGTKLEIK
binding [10]: binds

Continued, values first:

binding [1]: binds | binding [2]: binds
B1: ZLA-1243-E01 (antibody, V domains shown)
VH: QVQLVQSGGGLVQPGRSLRLSCAASGFTFDDYAMHWVRQAPGKGLEWVSGISWNSGSIGYADSVKGRFTISRDNAKNSLYLQMNSLRAEDTALYYCAKGLWPSYDLDAFDIWGQGTMVTVSS
VL: QSALTQPASVSGSPGQSITLSCTGTSSDVGAYNFVSWYQQHPGTAPKLMIYEVSNRPSGVSDRFSGSKSGNTASLTISGLQAEDEADYYCSSYTSTIPPFVFGTGTKVTVL

binding [8]: binds | binding [10]: binds
B4: S15B1-VH3 + VL1 (antibody, V domains shown)
VH: QVQLVQSGAEVKKPGASVKVSCKASGYAFSSSWMNWVKQAPGQGLEWIGRIYPGHGETNYNGKFKDRATMTADTSTSTVYMELSSLRSEDTAVYFCARVDNSDPYYFDYWGQGTTVTVSS
VL: DIVLTQSPASLAVSPGQRATITCRASKSVSTSGYSYMHWYQQKPGQPPKLLIYLASNLESGVPARFSGSGSGTDFTLTINPVEAEDTANYYCQHGRELPFTFGGGTKLEIK

Reference: patent US20250361297A1, “ANTI- SIGLEC-15 BINDING MOLECULES AND METHODS OF USE” (ADAPTAM THERAPEUTICS, S.L., priority 2024, published 2025)
